The list does not hold the whole screen: it gathers tests that were run many times, whatever their T/C, doses with no T/C, and many T/C values between a quarter and a half above the control. Further doses and runs are listed elsewhere. T/C is the treated group as % of the vehicle group. Some entries give survivors of the animals treated and no T/C: the source files T/C as zero there, which appears to mark a toxic dose or a test without result, not a measured value. Some survivor counts are full or nearly so, which does not show that the dose was tolerated: survival well below the control is almost never listed, so the zero probably covers shortened survival too. Counts of survivors are from the toxicity check (mostly the fifth day) where no day follows; animals may have died later. Schedules are NCI's codes, taken here to give the interval after Q, in days (D) or hours (H), and the number of doses after X. Some entries were tested several times; the results are listed from low to high. For survival time, the PubChem record calls one and a half times the control and up active, and a quarter to a half above the control has no call in these data; cut-offs in other NCI protocols can differ. Some T/C values carry the count of animals alive at the toxicity check (mostly the fifth day); without a count, all were alive then.
Tested on: P388 leukemia ip, CD2F1 mice, survival T/C
Assay: NCI In Vivo Anticancer Drug Screen. Data for tumor model P388 Leukemia (intraperitoneal) in CD2F1 (CDF1) mice
Conditions: T/C endpoint: median survival time, higher T/C = longer survival
[1] = dose: 50.0 mg/kg/injection, schedule: Q01DX005 (ip), vehicle: Klucel (hydroxypropylcellulose) (HPC)
[2] = dose: 100.0 mg/kg/injection, schedule: Q01DX005 (ip), vehicle: Klucel (hydroxypropylcellulose) (HPC)
[3] = dose: 200.0 mg/kg/injection, schedule: Q01DX005 (ip), vehicle: Klucel (hydroxypropylcellulose) (HPC)
[4] = dose: 240.0 mg/kg/injection, schedule: Q01DX005 (ip), vehicle: saline with Tween-80
[5] = dose: 50.0 mg/kg/injection, schedule: Q01DX009 (ip), vehicle: saline with Tween-80
[6] = dose: 100.0 mg/kg/injection, schedule: Q01DX009 (ip), vehicle: saline with Tween-80
[7] = dose: 200.0 mg/kg/injection, schedule: Q01DX009 (ip), vehicle: saline with Tween-80
[8] = dose: 60.0 mg/kg/injection, schedule: Q01DX005 (ip), vehicle: saline
[9] = dose: 120.0 mg/kg/injection, schedule: Q01DX005 (ip), vehicle: saline
[10] = dose: 240.0 mg/kg/injection, schedule: Q01DX005 (ip), vehicle: saline
[11] = dose: 200.0 mg/kg/injection, schedule: Q01DX009 (ip), vehicle: suspension in saline
[12] = dose: 200.0 mg/kg/injection, schedule: Q01DX005 (ip), vehicle: saline with Tween-80

## C1=C[N-]c2c3c(ccc2=C1)=CC=C[N-]3.C1=C[N-]c2c3c(ccc2=C1)=CC=C[N-]3.O=S(=O)(O)O.[Cu+2]
dose: 6.25 mg/kg/injection, schedule: Q04DX002 (ip), vehicle: Klucel (hydroxypropylcellulose) (HPC)
  survivor count: 6 of 6
dose: 12.5 mg/kg/injection, schedule: Q04DX002 (ip), vehicle: Klucel (hydroxypropylcellulose) (HPC)
  survivor count: 5 of 6
dose: 25.0 mg/kg/injection, schedule: Q04DX002 (ip), vehicle: Klucel (hydroxypropylcellulose) (HPC)
  survivor count: 2 of 6
dose: 50.0 mg/kg/injection, schedule: Q04DX002 (ip), vehicle: Klucel (hydroxypropylcellulose) (HPC)
  survivor count: 0 of 6
dose: 100.0 mg/kg/injection, schedule: Q04DX002 (ip), vehicle: Klucel (hydroxypropylcellulose) (HPC)
  survivor count: 0 of 6
dose: 200.0 mg/kg/injection, schedule: Q04DX002 (ip), vehicle: Klucel (hydroxypropylcellulose) (HPC)
  survivor count: 0 of 6
dose: 400.0 mg/kg/injection, schedule: Q04DX002 (ip), vehicle: Klucel (hydroxypropylcellulose) (HPC)
  survivor count: 0 of 6

## COc1cccc(C=O)c1OS(=O)(=O)c1ccc(C)cc1
dose: 200.0 mg/kg/injection, schedule: Q01DX009 (ip), vehicle: other
  survivor count: 2 of 6
dose: 400.0 mg/kg/injection, schedule: Q01DX009 (ip), vehicle: other
  survivor count: 2 of 6

## COc1ccc2c(C(=O)c3ccccc3)c3[n+](cc2c1OC)CCc1cc2c(cc1-3)OCO2
dose: 25.0 mg/kg/injection, schedule: Q01DX005 (ip), vehicle: Klucel (hydroxypropylcellulose) (HPC)
  survivor count: 2 of 5
[1]
  survivor count: 0 of 6
[2]
  survivor count: 0 of 6
[3]
  survivor count: 0 of 6

## CCC(c1ccc(OCC(=O)N/N=C2/CCC3C4CCc5cc(O)ccc5C4CCC23C)cc1)C(CC)c1ccc(OCC(=O)N/N=C2\CCC3C4CCc5cc(O)ccc5C4CCC23C)cc1 (stereo not drawn)
dose: 100.0 mg/kg/injection, schedule: Q01DX001 (ip), vehicle: Klucel (hydroxypropylcellulose) (HPC)
  survivor count: 6 of 6

## O=C(Nc1c(Cl)cccc1Cl)Oc1cccc2cccnc12
dose: 120.0 mg/kg/injection, schedule: Q01DX005 (ip), vehicle: saline with Tween-80
  survivor count: 6 of 6
[4]
  survivor count: 6 of 6

## CCCCOCN(COCCCC)C(C)Cc1ccccc1 (stereo not drawn)
[5]
  T/C: 138 % of control
[6]
  T/C: 138 % of control
[7]
  T/C: 141 % of control

## COc1ccc(-c2cc(=O)c3cccc(CC(=O)O)c3o2)cc1
[2]
  T/C: 141 % of control
[3]
  survivor count: 2 of 6

## COc1cc(OC)c(C(=O)C(CN(C)C)CN(C)C)cc1OC
dose: 15.0 mg/kg/injection, schedule: Q01DX005 (ip), vehicle: other
  survivor count: 3 of 6
dose: 30.0 mg/kg/injection, schedule: Q01DX005 (ip), vehicle: other
  survivor count: 0 of 6
dose: 30.0 mg/kg/injection, schedule: Q01DX005 (ip), vehicle: saline
  survivor count: 0 of 6
dose: 60.0 mg/kg/injection, schedule: Q01DX005 (ip), vehicle: other
  survivor count: 0 of 6
[8]
  T/C: 139 % of control
  survivor count: 0 of 6
dose: 120.0 mg/kg/injection, schedule: Q01DX005 (ip), vehicle: other
  survivor count: 0 of 6
[9]
  survivor count: 0 of 6
dose: 240.0 mg/kg/injection, schedule: Q01DX005 (ip), vehicle: other
  survivor count: 0 of 6
[10]
  survivor count: 0 of 6

## c1cc2n[pH]nc2cn1 (stereo not drawn)
[8]
  survivor count: 0 of 6
[9]
  survivor count: 0 of 6
[10]
  survivor count: 0 of 6

## Nc1ncnc2c1ncn2C1OCC(O)C1O (stereo not drawn)
[11]
  survivor count: 6 of 6

## CC1(C)N=C(N)N=C(N)N1c1ccc(OCc2ccc(C(=O)Nc3cccc(S(=O)(=O)F)c3)cc2)c(Cl)c1
dose: 200.0 mg/kg/injection, schedule: Q04DX003 (ip), vehicle: saline
  survivor count: 5 of 6
dose: 400.0 mg/kg/injection, schedule: Q04DX003 (ip), vehicle: saline
  survivor count: 3 of 6

## COc1ccc(CCNc2ccc(NCCc3ccc(OC)c(OC)c3)c3c2C(=O)c2ccccc2C3=O)cc1OC
dose: 100.0 mg/kg/injection, schedule: Q01DX009 (ip), vehicle: other
  survivor count: 6 of 6

## C=C1C(=O)OC2/C=C(\C)C3OC3/C=C(/C(=O)OC)C(O)C(OC(=O)C3(C)OC3C)C12 (stereo not drawn)
dose: 12.0 mg/kg/injection, schedule: Q01DX009 (ip), vehicle: Klucel (hydroxypropylcellulose) (HPC)
  T/C: 128 % of control

## CCN(CC)CCOC(C)(C#CC(C)(O)CC)CC (stereo not drawn)
[12]
  survivor count: 0 of 6

## COc1ccc2[nH]c3c(C)c4cc[n+](C)c(C)c4cc3c2c1
dose: 80.0 mg/kg/injection, schedule: Q04DX002 (ip), vehicle: water
  T/C: 130 % of control
dose: 160.0 mg/kg/injection, schedule: Q04DX002 (ip), vehicle: water
  survivor count: 2 of 6

## COc1ccc(/C=C/C(=O)c2cc(C(=O)O)c(OC)cc2OC)cc1OC
dose: 100.0 mg/kg/injection, schedule: Q01DX009 (ip), vehicle: suspension in saline
  T/C: 135 % of control
[11]
  T/C: 132 and 134 % of control [5 of 6 alive]
dose: 400.0 mg/kg/injection, schedule: Q01DX009 (ip), vehicle: suspension in saline
  survivor count: 4 of 6

## O=C(N/C=C/c1ccco1)NC1CCCCCCCCCCC1
[1]
  survivor count: 4 of 5
[2]
  survivor count: 5 of 5
[3]
  survivor count: 1 of 5

## COc1ncc[n+]([O-])n1
[5]
  survivor count: 6 of 6

## CCC[CH2][Sn]1([CH2]CCC)[O]C(=O)c2c(Cl)c(Cl)c(Cl)c(Cl)c2C(=O)[O]1
dose: 6.25 mg/kg/injection, schedule: Q01DX005 (ip), vehicle: saline with Tween-80
  T/C: 127 % of control
dose: 12.5 mg/kg/injection, schedule: Q01DX005 (ip), vehicle: saline with Tween-80
  survivor count: 1 of 6 and 6 of 6
dose: 25.0 mg/kg/injection, schedule: Q01DX005 (ip), vehicle: saline with Tween-80
  survivor count: 0 of 6
dose: 50.0 mg/kg/injection, schedule: Q01DX005 (ip), vehicle: saline with Tween-80
  survivor count: 0 of 6
dose: 100.0 mg/kg/injection, schedule: Q01DX005 (ip), vehicle: saline with Tween-80
  survivor count: 0 of 6
[12]
  survivor count: 0 of 6

## Oc1c(-c2ccccc2)cc(-c2ccc(Br)cc2)c(-c2ccc(Br)cc2)c1-c1ccccc1
[5]
  survivor count: 6 of 6

## O=C(CC1NCCCC1O)Cn1cnc2ccccc2c1=O (stereo not drawn)
dose: 8.0 mg/kg/injection, schedule: Q01DX009 (ip), vehicle: distilled water + alcohol
  survivor count: 1 of 6

## CCOC(=O)/C(C#N)=C/Nc1ccc(Cl)nc1Cl
[4]
  survivor count: 6 of 6

## CS(=O)(=O)OCCN(CCOS(C)(=O)=O)c1ccc(N=Nc2ccccc2)cc1
dose: 6.25 mg/kg/injection, schedule: Q01DX009 (ip), vehicle: saline with Tween-80
  T/C: 144 and 147 % of control
dose: 25.0 mg/kg/injection, schedule: Q01DX009 (ip), vehicle: saline with Tween-80
  T/C: 141 % of control
[5]
  survivor count: 5 of 6
[6]
  survivor count: 6 of 6
[7]
  survivor count: 4 of 6

## COC(=O)c1nc(N)nc(C(=O)OC)c1C(=O)c1ccc2ccccc2c1
dose: 240.0 mg/kg/injection, schedule: Q01DX005 (ip), vehicle: Klucel (hydroxypropylcellulose) (HPC)
  survivor count: 0 of 6

## CCOC(=O)C[N+]1(C)C2CCC1CC(OC(=O)C(CO)c1ccccc1)C2 (stereo not drawn)
dose: 50.0 mg/kg/injection, schedule: Q01DX009 (ip), vehicle: saline
  survivor count: 3 of 6 and 5 of 6
dose: 100.0 mg/kg/injection, schedule: Q01DX009 (ip), vehicle: saline
  survivor count: 0 of 6
dose: 200.0 mg/kg/injection, schedule: Q01DX009 (ip), vehicle: saline
  survivor count: 0 of 6

## CS/C(=N\N=C(/C)c1ccccn1)SS/C(=N/N=C(\C)c1ccccn1)SC
dose: 200.0 mg/kg/injection, schedule: Q01DX005 (ip), vehicle: saline + Tween-80 + alcohol
  survivor count: 6 of 6

Reference: PubChem BioAssay AID330 (DTP/NCI, 2004)
